For the assay, the target named is EZH2 (human (endogenous in HuAECs)) (UniProt Q15910). In words: co-IP; co-immunoprecipitation then western blot from HuAECs overexpressing miR-544 or miR-mut (control); endogenous proteins; the precipitating antibodies are not told in the text shown (full methods in the supplement).

Protein sequences, listed by entry. Tags and fused reporters are not part of them.
UniProt Q15910: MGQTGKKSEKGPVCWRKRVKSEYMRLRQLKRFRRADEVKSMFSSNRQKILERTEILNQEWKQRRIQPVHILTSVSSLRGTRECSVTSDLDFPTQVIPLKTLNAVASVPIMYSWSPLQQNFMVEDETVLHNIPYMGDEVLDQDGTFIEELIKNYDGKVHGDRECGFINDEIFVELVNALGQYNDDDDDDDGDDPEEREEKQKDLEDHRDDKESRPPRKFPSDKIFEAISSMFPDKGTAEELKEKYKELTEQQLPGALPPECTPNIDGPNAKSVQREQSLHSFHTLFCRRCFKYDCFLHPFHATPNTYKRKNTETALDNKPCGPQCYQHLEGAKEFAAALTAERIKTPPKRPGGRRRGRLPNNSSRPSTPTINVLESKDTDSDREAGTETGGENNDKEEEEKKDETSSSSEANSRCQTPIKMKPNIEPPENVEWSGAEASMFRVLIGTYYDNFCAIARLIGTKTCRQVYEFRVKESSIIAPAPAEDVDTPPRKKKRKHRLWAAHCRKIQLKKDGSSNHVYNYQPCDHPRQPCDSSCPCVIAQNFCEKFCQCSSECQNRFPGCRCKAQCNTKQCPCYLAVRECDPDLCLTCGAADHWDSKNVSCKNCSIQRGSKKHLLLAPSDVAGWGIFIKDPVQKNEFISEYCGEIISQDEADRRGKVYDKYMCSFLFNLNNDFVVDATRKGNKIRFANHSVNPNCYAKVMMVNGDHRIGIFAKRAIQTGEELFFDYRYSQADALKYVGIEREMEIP
UniProt P25490: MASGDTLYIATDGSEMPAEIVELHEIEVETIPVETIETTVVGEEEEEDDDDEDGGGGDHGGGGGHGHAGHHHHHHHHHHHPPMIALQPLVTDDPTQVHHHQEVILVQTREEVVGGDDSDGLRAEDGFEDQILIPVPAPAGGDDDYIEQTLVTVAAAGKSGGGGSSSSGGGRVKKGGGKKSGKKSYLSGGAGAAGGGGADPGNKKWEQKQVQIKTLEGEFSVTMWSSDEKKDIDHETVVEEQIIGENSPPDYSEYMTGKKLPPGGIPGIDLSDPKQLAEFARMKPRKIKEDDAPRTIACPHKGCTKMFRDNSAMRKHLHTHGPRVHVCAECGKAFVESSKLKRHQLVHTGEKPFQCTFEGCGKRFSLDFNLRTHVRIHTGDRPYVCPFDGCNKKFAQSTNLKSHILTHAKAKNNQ

No constants are given. Whether binding was seen depends on the method and setting. In cells and extracts the contact can be indirect. Some binding calls cover weakened binding; strength is not graded here.

In the case of “YinYang 1 (YY1) (from UniProt P25490 1-414)”, the binding result is given as “binds”.

The record behind these values is PMC7055126.
